Data published in patent US20250017856A1, “CO-FORMULATION AND CO-DELIVERY OF IONIZABLE COLLOID FORMING DRUGS WITH NUCLEIC ACIDS” (THE GOVERNING COUNCIL OF THE UNIVERSITY OF TORONTO, priority 2023, published 2025).
At least one compound was matched to its structure with a doubt left.

Key:
[1] = RNA encapsulation efficiency (modified Quant-iT RiboGreen assay) and loading; format: physicochemical
Description: [NT] antisense (SEQ ID NO: 2): [NT] where “d” denotes a DNA base), siFLuc-2 (sense (SEQ ID NO: 3): [NT] antisense (SEQ ID NO: 4): [NT] where “d” denotes a DNA base and “m” indicates a 2'-O-methyl RNA base), sinLuc (sense (SEQ ID NO: 5): [NT] antisense SEQ ID NO: 6): [NT] where “d” denotes a DNA base), […]1 (sense (SEQ ID NO: 7): [NT] antisense (SEQ ID NO: 8): [NT] where “d” denotes a DNA base and “m” indicates a 2'-O-methyl RNA base), siNT (sense (SEQ ID NO: 9): [NT] antisense (SEQ ID NO: 10): [NT] where “d” denotes a DNA base and “m” indicates a 2'-O-methyl RNA base), mFLuc (EZ Cap Firefly Luciferase mRNA (5-moUTP), ApexBio), rRNA or RNA from Torula utilis yeast (T.U. RNA) was diluted in citrate buffer (50 or 25 mM, pH 4), malate buffer (25 mM, pH 4.0) or acetate buffer (25 mM, pH 4.0). A lipid/drug mix concentration of 5.5 mM was used with a total flow rate of 9 mL/min at a 3:1 ratio of aqueous to organic phase. […] After formulation, buffer exchange into PBS or Tris-buffered saline (TBS; pH 8.5) was performed using Amicon Ultra-4 centrifugal filters (molecular weight cut-off 10 kDa). Hydrodynamic diameter, polydispersity index (PDI), and scattering intensity were measured by dynamic light scattering (DLS) using a DynaPro Plate Reader II (Wyatt Technologies). The instrument was configured with a 60 mW 830 nm laser and a detector angle of 158°. A 25 μL sample of each formulation was pipetted into each well of a 384-well plate and measured with 20 acquisitions per sample at 25° C. […] Quant-iT RiboGreen reagent was added, and fluorescence intensity was quantified using a Tecan Infinite […] plate reader.

[2] = Hydrodynamic diameter and polydispersity index by dynamic light scattering; format: physicochemical; conditions: siRNA, DOPC, neutralized in PBS
Description: [NT] antisense (SEQ ID NO: 2): [NT] where “d” denotes a DNA base), siFLuc-2 (sense (SEQ ID NO: 3): [NT] antisense (SEQ ID NO: 4): [NT] where “d” denotes a DNA base and “m” indicates a 2'-O-methyl RNA base), sinLuc (sense (SEQ ID NO: 5): [NT] antisense SEQ ID NO: 6): [NT] where “d” denotes a DNA base), […]1 (sense (SEQ ID NO: 7): [NT] antisense (SEQ ID NO: 8): [NT] where “d” denotes a DNA base and “m” indicates a 2'-O-methyl RNA base), siNT (sense (SEQ ID NO: 9): [NT] antisense (SEQ ID NO: 10): [NT] where “d” denotes a DNA base and “m” indicates a 2'-O-methyl RNA base), mFLuc (EZ Cap Firefly Luciferase mRNA (5-moUTP), ApexBio), rRNA or RNA from Torula utilis yeast (T.U. RNA) was diluted in citrate buffer (50 or 25 mM, pH 4), malate buffer (25 mM, pH 4.0) or acetate buffer (25 mM, pH 4.0). A lipid/drug mix concentration of 5.5 mM was used with a total flow rate of 9 mL/min at a 3:1 ratio of aqueous to organic phase. […] Hydrodynamic diameter, polydispersity index (PDI), and scattering intensity were measured by dynamic light scattering (DLS) using a DynaPro Plate Reader II (Wyatt Technologies). […] A 25 μL sample of each formulation was pipetted into each well of a 384-well plate and measured with 20 acquisitions per sample at 25° C. […] Quant-iT RiboGreen reagent was added, and fluorescence intensity was quantified using a Tecan Infinite […] plate reader.

[3] = system: SKOV3-FLuc cells; assay: Cellular uptake of nanoparticles in SKOV3-FLuc cells; format: cell-based; conditions: siRNA, DOPC, neutralized in PBS
[4] = system: FLuc in SKOV3-FLuc cells; assay: Model gene knockdown, firefly luciferase; format: cell-based
Protocol: For single-dose studies, 5×10^3 SKOV3-FLuc or 2×10^3 Vero-nLucP cells in 100 μL were plated in each well of a white-wall 96-well plate (Costar 3610) and allowed to adhere overnight. FXNP suspensions were diluted in PBS and 10 μL of each tested formulation was dosed in triplicate, followed by 100 μL of complete cell growth media to promote mixing. The final encapsulated siRNA concentration in each well was 50.0 nM. For dose-response studies, 1.25×10^3 SKOV3-FLuc cells in 25 μL were plated in each well of a white-wall 384-well plate (Greiner Bio-one 781073) and allowed to adhere overnight. Nanoparticle suspensions were diluted in PBS and 5 μL of each tested formulation was dosed in triplicate, followed by 20 μL of complete cell growth media to promote mixing. The final encapsulated siRNA concentration in each well is specified in each figure. For all studies, the plate was incubated for 24 h followed by removal of the media. For SKOV3-FLuc cells, fresh media was added, and the plate was incubated for an additional 24 h before removal of the media. Total cellular metabolic activity was quantified by addition of PrestoBlue™ according to the manufacturer's instructions, after which the reagent was subsequently removed, and expression of either firefly luciferase (SKOV3-FLuc) or nano luciferase (Vero-nLucP) was determined by Steady-Glo® Luciferase Assay System or Nano-Glo® Luciferase Assay System, respectively. Luminescence was measured using a Tecan Infinite Pro 200 plate reader. Cell metabolic activity and reporter gene expression are represented relative to cells treated with an equivalent volume of PBS. Reporter gene expression is normalized to cell metabolic activity. For dose-response studies, IC50 values were determined by non-linear regression analysis using eq. 3

[5] = 10 mol % SM-102, netarsudil:cholesterol 40:38.5 to 78.5:0
[6] = siRNA, DOPC, neutralized in PBS

Compound	siRNA encapsulation (in words) ([1]; drugs that were not colloid formers)	PDI [2]	hydrodynamic diameter [2]	siRNA encapsulation [1, 5]	encapsulation efficiency [1, 6]	loading efficiency [1, 6]	endocytosis [3]	effect of reduction in cholesterol on luciferase knockdown potency [4, 5]	potency on reducing SM-102 from 10 mol % to 5 mol % ([4]; netarsudil:SM-102 45:5 versus 40:10)	specific knockdown of FLuc [4, 6]
C[C@H]1COc2c(N3CCN(C)CC3)c(F)cc3c(=O)c(C(=O)O)cn1c23 [levofloxacin, reference compound]	did not encapsulate siRNA in nanoparticles or encapsulated siRNA at low efficiency									
Cc1ccc(C(=O)OCc2ccc([C@@H](CN)C(=O)Nc3ccc4cnccc4c3)cc2)c(C)c1 [netarsudil]		0.184	138.0 nm	> 98%	96.0%	4.99%	efficiently endocytosed	significant loss in luciferase knockdown potency	without sacrificing potency	did not result in specific knockdown of FLuc
